Measured values reported in article PMC7348769.
Results are given in words; binding and its absence hold for the method and conditions named. For part of these data: In cells and extracts the contact can be indirect. Some binding calls cover weakened binding; strength is not graded here. Where a sequence is shown, tags or fusion partners need not be part of it.

Chains of the proteins cited; added tags and fusions are not shown.
UniProt P17302: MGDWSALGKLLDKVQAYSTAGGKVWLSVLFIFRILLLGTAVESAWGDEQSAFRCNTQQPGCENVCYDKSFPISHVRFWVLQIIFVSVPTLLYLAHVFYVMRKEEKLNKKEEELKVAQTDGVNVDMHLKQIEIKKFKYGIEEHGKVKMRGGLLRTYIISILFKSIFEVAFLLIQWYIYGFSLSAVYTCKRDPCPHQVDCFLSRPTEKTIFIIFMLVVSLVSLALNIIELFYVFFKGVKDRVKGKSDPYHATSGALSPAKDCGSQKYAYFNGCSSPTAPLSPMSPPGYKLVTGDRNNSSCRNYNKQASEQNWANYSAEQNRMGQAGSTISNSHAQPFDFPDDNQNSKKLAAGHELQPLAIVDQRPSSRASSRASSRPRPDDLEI

T1: MLC1 wild type (megalencephalic leukoencephalopathy with subcortical cysts protein 1), X-press tagged (human) (UniProt Q15049)
T1 sequence: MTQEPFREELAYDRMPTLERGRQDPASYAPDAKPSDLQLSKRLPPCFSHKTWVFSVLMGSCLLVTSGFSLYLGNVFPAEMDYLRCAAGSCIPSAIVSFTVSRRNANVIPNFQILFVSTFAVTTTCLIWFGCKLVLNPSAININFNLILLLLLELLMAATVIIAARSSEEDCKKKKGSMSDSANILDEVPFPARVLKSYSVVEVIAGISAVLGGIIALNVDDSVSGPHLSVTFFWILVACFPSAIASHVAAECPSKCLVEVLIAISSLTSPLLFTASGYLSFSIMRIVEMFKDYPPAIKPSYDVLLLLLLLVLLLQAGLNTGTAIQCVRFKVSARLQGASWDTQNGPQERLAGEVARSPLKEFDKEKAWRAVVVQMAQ


Assays:
[1] = target: T1, MLC1 wild type (megalencephalic leukoencephalopathy with subcortical cysts protein 1), X-press tagged (human); assay: co-IP; anti-Xpress mAb and protein A/G PLUS agarose beads on lysates of U251 cells expressing X-press-MLC1; binding buffer 20 mM HEPES pH 7.4, 150 mM NaCl, 1 mM EDTA, 1 mM EGTA, 0.1% Triton X-100, 0.1% sodium deoxycholate; overnight at 4 °C; Western blot
[2] = target: T1, MLC1 wild type (megalencephalic leukoencephalopathy with subcortical cysts protein 1), X-press tagged (human); assay: Western blot of SDS-PAGE (band of dimer size); cytosolic and membrane protein extracts (40 µg) of U251 cell lines, 4-12% gradient SDS-PAGE, anti-MLC1 pAb

| binding [1] | binding [2] | Molecule |
| --- | --- | --- |
| no binding | – | Connexin 43 (from UniProt P17302 1-382) |
| – | binds | MLC1 wild type (megalencephalic leukoencephalopathy with subcortical cysts protein 1), X-press tagged (protein, UniProt Q15049 1-377) MTQEPFREELAYDRMPTLERGRQDPASYAPDAKPSDLQLSKRLPPCFSHKTWVFSVLMGSCLLVTSGFSLYLGNVFPAEMDYLRCAAGSCIPSAIVSFTVSRRNANVIPNFQILFVSTFAVTTTCLIWFGCKLVLNPSAININFNLILLLLLELLMAATVIIAARSSEEDCKKKKGSMSDSANILDEVPFPARVLKSYSVVEVIAGISAVLGGIIALNVDDSVSGPHLSVTFFWILVACFPSAIASHVAAECPSKCLVEVLIAISSLTSPLLFTASGYLSFSIMRIVEMFKDYPPAIKPSYDVLLLLLLLVLLLQAGLNTGTAIQCVRFKVSARLQGASWDTQNGPQERLAGEVARSPLKEFDKEKAWRAVVVQMAQ |
| binds | – | GlialCAM (glial cell adhesion molecule) (protein, UniProt Q14CZ8 34-416) VNITSPVRLIHGTVGKSALLSVQYSSTSSDRPVVKWQLKRDKPVTVVQSIGTEVIGTLRPDYRDRIRLFENGSLLLSDLQLADEGTYEVEISITDDTFTGEKTINLTVDVPISRPQVLVASTTVLELSEAFTLNCSHENGTKPSYTWLKDGKPLLNDSRMLLSPDQKVLTITRVLMEDDDLYSCMVENPISQGRSLPVKITVYRRSSLYIILSTGGIFLLVTLVTVCACWKPSKRKQKKLEKQNSLEYMDQNDDRLKPEADTLPRSGEQERKNPMALYILKDKDSPETEENPAPEPRSATEPGPPGYSVSPAVPGRSPGLPIRSARRYPRSPARSPATGRTHSSPPRAPSSPGRSRSASRTLRTAGVHIIREQDEAGPVEISA |
